The subject of series [1] is ICERIIγ (inducible cAMP early repressor II gamma, CREM isoform). The experiment in a line: EMSA. The settings on record: purified recombinant protein, label: 32P 5' end. (Mobility shift assays separate free from complexed probe on a gel.)
The subject of series [2] is CREMτ (co-transfected with PKA). The experiment in a line: activity in cells. The settings on record: luciferase in bone marrow stroma with PKA; protein in cells.
In series [3] the test system is ICERIIγ (co-transfected). The experiment in a line: activity in cells. The conditions noted are these: repression: luciferase significantly reduced (p<0.01) when co-transfected with PKA and CREMτ; protein in cells.
Setting [4] is: 2 ug protein, 20 ng probe, 1 h, 4% PAGE, only core site printed.

The exact form of at least one protein or probe is not confirmed. For part of these data: No signal at the amounts used counts as a negative.

For the sequence “AGATGTTT (double strand) [CRE-PPT-I mutant]”, the binding result in series [1] (mutant CRE not bound, variant of CRE-PPT-I wild type) is on record as “no binding”.

As to “CGACGGCCCGGCTGGTAAATTCCCCTTTCTCCAAAATGTAAAATAAATCTGCTTCCATCTTCTAAAATACTATGGGACTAAACATCCTTTTGTTATGCTAAGGAAAAGCCAGTATTCGCGTTGATTTAGAAGAGGGATGTTCTGGTTATAGAACGATGCTGTGTCTCAGAAACACTTAAATACTATTAAGCTAGAAATAGAAGGGAAAATAATGCTTCCCCGCATCTCCCCTCAAGTGTAGTCCTCTTTTTTTAGCCTGATTTCCGACGAAATGTCTGAATGCCTACAGTTATTTGGCCATCCTGAAAAGTGCAACTTATCCTGACGTCTCGAGGGACGGAAAAGTTACCGAAGTCCAAGGAATGAGTCACTTTGCTCAAATTTGATGAGTAATATCAGGTGTCATGAAACCCAGTTTCGAAGGAGAGGGGAGGGGGCGTCAGATCTGCAGACGGAAGCAGGCCGCTCCGGATTGGATGGCGAGACCTCGATTTTCCTAAAATTGCGTCATTTAGAACCCAATTGGGTCCAGATGTTATGGGCATCGACGAGTTACCGTCTCGGAAACTCTCAATCACGCAAGCGAAAGGAGAGGAGGCGGCTAATTAAATATTGAGCAGAAAGTCGCGTGGGGAGAATGTCACGTGGGTCTGGAGGCTCAAGGAGGCTGGGATAAATACCGCAAGGCACTGAGCAGGCGAAAGAGCGCGCTCGGACCTCCT (double strand)”, the “activity on this sequence” value in series [2] and in series [3] was “active” throughout.

“TGACGTCT (double strand) [CRE-PPT-I wild type]”: the binding result in series [1] (setting [4]) is listed as “binds”.

For the sequence “TTGCGTCA (double strand) [CRE-like-PPT-I wild type]”, the binding result in series [1] (setting [4]) is reported as “binds”.

As for “TTGTGCAC (double strand) [CRE-like-PPT-I mutant]”, in series [1] (mutant CRE-like not bound, variant of CRE-like-PPT-I wild type), the binding result is “no binding”.

Source of the values: US20020146810.
